Values from PubChem BioAssay AID1159578 (Peter MacCallum Cancer Centre, 2015)

Purpose: 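Genome-wide hunt for genes controlling movement of lymphatic endothelial cells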 (primary screen)
System: human lymphatic endothelial cells
Reagent: siRNA pool against human genes, 40 nM
Duration: 48 h after transfection
Measurement: 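High-content imaging of dye-stained cells in a scratch assay measures filled wound area and nuclei per well; duplicate means given as ratio to mock and robust z-score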
Reading the numbers: migration robust z-score: higher = faster migration into the scratch; nuclei per well: higher = more cells in the well
Call rule: 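Migration changed when robust z exceeds 2 or falls below -2 and mean nuclei number is at least 3300; otherwise not called changed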
Meaning of the calls: active = migration changed; inactive = no migration change, or too few cells
This is an unselected part of about 18,000 reagents. About 1,030 of them (5.7%) count as active. 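Inactive calls also include pools with fewer than 3300 nuclei, whose migration was not assessed.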 Raw values vary from plate to plate and are shown uncorrected. Reagents against one gene are numbered here. Further read-outs or replicates are left out here.

| gene knocked down | reagent no. | migration robust z-score | nuclei per well, duplicate mean | activity call |
| --- | --- | --- | --- | --- |
| ANKRD37 (GeneID 353322) | 1 | -0.26 | 5491 | inactive |
| RPS6KA2 (GeneID 6196) | 1 | -1.56 | 2716 | inactive |
| FRY (GeneID 10129) | 1 | -0.25 | 6226 | inactive |
| DENND1A (GeneID 57706) | 1 | 0.28 | 5212 | inactive |
| THAP8 (GeneID 199745) | 1 | 0.34 | 4725 | inactive |
| ATG4D (GeneID 84971) | 1 | -0.08 | 5356 | inactive |
| PRPF18 (GeneID 8559) | 1 | -0.34 | 5866 | inactive |
| FAM133A (GeneID 286499) | 1 | 0.12 | 5920 | inactive |
| PODNL1 (GeneID 79883) | 1 | 0.95 | 5246 | inactive |
| TRIM62 (GeneID 55223) | 1 | 0.65 | 5693 | inactive |
| KCND1 (GeneID 3750) | 1 | 0.62 | 4298 | inactive |
| COX8C (GeneID 341947) | 1 | -0.8 | 4778 | inactive |
| SSX9P (GeneID 280660) | 1 | 0.16 | 5665 | inactive |
| VSIG2 (GeneID 23584) | 1 | -0.48 | 4320 | inactive |
| KMT2A (GeneID 4297) | 1 | -0.52 | 6040 | inactive |
| CDC73 (GeneID 79577) | 1 | -0.28 | 5363 | inactive |
| KIF22 (GeneID 3835) | 1 | -1.22 | 4699 | inactive |
| TNIK (GeneID 23043) | 1 | -0.52 | 3611 | inactive |
| SLC25A22 (GeneID 79751) | 1 | 1.04 | 6478 | inactive |
| CCN2 (GeneID 1490) | 1 | -0.16 | 5828 | inactive |
| MR1 (GeneID 3140) | 1 | 0.65 | 5698 | inactive |
| POLR3E (GeneID 55718) | 1 | 0.49 | 6464 | inactive |
| ANKRD28 (GeneID 23243) | 1 | 0.71 | 5214 | inactive |
| HSPE1 (GeneID 3336) | 1 | 0.93 | 6134 | inactive |
| WDR75 (GeneID 84128) | 1 | -0.44 | 5588 | inactive |
| CCER1 (GeneID 196477) | 1 | -0.28 | 5494 | inactive |
| CLEC4C (GeneID 170482) | 1 | 0.69 | 4132 | inactive |
| MARVELD3 (GeneID 91862) | 1 | -0.69 | 6538 | inactive |
| TXLNGY (GeneID 246126) | 1 | 0.12 | 6030 | inactive |
| TXLNGY (GeneID 246126) | 2 | -0.12 | 5250 | inactive |
| KIR3DL2 (GeneID 3812) | 1 | 0.6 | 6612 | inactive |
| DGCR6 (GeneID 8214) | 1 | 1.64 | 6296 | inactive |
| SV2A (GeneID 9900) | 1 | 1.38 | 6208 | inactive |
| DNMBP (GeneID 23268) | 1 | 0.96 | 5958 | inactive |
| NR5A2 (GeneID 2494) | 1 | -0.29 | 5520 | inactive |
| CXCL12 (GeneID 6387) | 1 | -0.88 | 4464 | inactive |
| A1BG (GeneID 1) | 1 | 0.36 | 5170 | inactive |
| ZFX (GeneID 7543) | 1 | 0.14 | 6768 | inactive |
| NACA2 (GeneID 342538) | 1 | 0.92 | 6685 | inactive |
